{"sequences": {"note": "The chains behind the UniProt entries cited, without tags or fusion partners.", "UniProt Q0JBA9, entry or part of it": "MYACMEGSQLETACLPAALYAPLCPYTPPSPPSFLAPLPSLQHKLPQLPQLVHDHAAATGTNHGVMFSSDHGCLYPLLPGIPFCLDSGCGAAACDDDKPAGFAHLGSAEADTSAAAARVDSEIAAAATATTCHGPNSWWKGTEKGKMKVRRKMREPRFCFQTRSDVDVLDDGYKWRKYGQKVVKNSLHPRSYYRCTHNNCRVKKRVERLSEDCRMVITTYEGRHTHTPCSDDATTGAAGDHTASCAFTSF"}, "source": "paper PMC7819943", "about": "“Rice protein-binding microarrays: a tool to detect cis-acting elements near promoter regions in rice”", "note": "Some of the results follow.", "data": [{"molecular_target": "OsWRKY34 (Oryza sativa, UniProt Q0JBA9 1-250)", "assay": "protein-binding microarray (RPBM); PBS, 2% BSA, 51.3 ng/ul salmon testes DNA, 50 uM zinc acetate, 200 nM TF, 25 C, 1 h; high values mean tight binding", "conditions": "protein: recombinant; tags: N-terminal polyhistidine and DsRed monomer fusion (pET32a); label: CyDye5-dUTP incorporated in the synthesized complementary strand; 3' TTTTT single-stranded linker to array surface; dsDNA, one strand shown", "method_in_brief": "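Transcription factors were each fused at the N-terminus to a polyhistidine tag plus DsRed and expressed in E. coli BL21-CodonPlus before Ni–NTA purification. Binding to a double-stranded custom Agilent array was carried out with 200 nM protein at 25 °C for 1 h in PBS, 2% BSA, salmon testes DNA and 50 µM zinc acetate. The binding signal is per-feature fluorescence intensity, in arbitrary units, on an Axon 4000B scanner.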", "values": [{"sequence": "ATTTTGTCTTACATGTTTGTGAAGTTATATATTTCATATTCGGAGTCACCTAGTGCAG", "binding signal": "9220 fluorescence intensity (a.u.)"}, {"sequence": "GGCAGAGCAGCATATCGATCTTAGAATTAGCTTTCAGTTCCGGAGTCACCTAGTGCAG", "binding signal": "9190 fluorescence intensity (a.u.)"}, {"sequence": "CTCATAATAGATTTACTTTTAATGCCGTTGTTTTGTTTTACGGAGTCACCTAGTGCAG", "binding signal": "9090 fluorescence intensity (a.u.)"}, {"sequence": "CTCCTCCTTCCCTATGCGCGCTCGCTGAGTTGCCGGCCATCGGAGTCACCTAGTGCAG", "binding signal": "8590 fluorescence intensity (a.u.)"}, {"sequence": "TGTGGGTTAATGTAGCACTTATGGCTAATTATGGACTAATCGGAGTCACCTAGTGCAG", "binding signal": "8670 fluorescence intensity (a.u.)"}, {"sequence": "ACGCCGCTCGCGCCCGCGGAGGGGAGGGGAGGGGAAGATCCGGAGTCACCTAGTGCAG", "binding signal": "11700 fluorescence intensity (a.u.)"}, {"sequence": "AACACAAATCTTCCCCATTTTTTTTTTGTTCGCTTCCATCCGGAGTCACCTAGTGCAG", "binding signal": "12900 fluorescence intensity (a.u.)"}, {"sequence": "ACTAGTACACACTTGCATCATTCACAGGTTGAGCCATCCACGGAGTCACCTAGTGCAG", "binding signal": "8920 fluorescence intensity (a.u.)"}, {"sequence": "GTCTTTTGATGCGACGCGATGTGACTCGCCCGACCCAACTCGGAGTCACCTAGTGCAG", "binding signal": "8940 fluorescence intensity (a.u.)"}, {"sequence": "AGGTGAGGTGGAGGAGGAGGAGGAGGAGGAGATCGGGATGCGGAGTCACCTAGTGCAG", "binding signal": "8790 fluorescence intensity (a.u.)"}, {"sequence": "CTCGTCGATCACCTCATCACCGTTTGTTTTGCAGGTGGCGCGGAGTCACCTAGTGCAG", "binding signal": "8220 fluorescence intensity (a.u.)"}, {"sequence": "TTCTAGCTTTTCTGTCACATGTCACATCGTTCCAATTTCACGGAGTCACCTAGTGCAG", "binding signal": "9480 fluorescence intensity (a.u.)"}, {"sequence": "ACGTGGCGATAGGACCCGCGCCTTCACTCAGCTGCTCGCTCGGAGTCACCTAGTGCAG", "binding signal": "8630 fluorescence intensity (a.u.)"}, {"sequence": "GATTGTATAGCGCCCGTCTCTCCTCTCGTCTCCTTGTTCTCGGAGTCACCTAGTGCAG", "binding signal": "8490 fluorescence intensity (a.u.)"}, {"sequence": "GTCTATTAGAGCTCTAGTATTACTCACTGCAAATCTGTTACGGAGTCACCTAGTGCAG", "binding signal": "8420 fluorescence intensity (a.u.)"}, {"sequence": "CTCTCTCTCTCTCTCTCTCTCTCTCTCTCTCTCTCTCTCTCGGAGTCACCTAGTGCAG", "binding signal": "9100 ± 325 fluorescence intensity (a.u.)"}, {"sequence": "CCCGGTCGCCTTATTTTATTTTAAAAAGCCCATGATTTCTCGGAGTCACCTAGTGCAG", "binding signal": "9430 fluorescence intensity (a.u.)"}, {"sequence": "CCTCTTAACTCTTTCCCATTCCCAAATGCGCCACTGTCTCCGGAGTCACCTAGTGCAG", "binding signal": "9190 fluorescence intensity (a.u.)"}, {"sequence": "GCAGAGAGAGGGGAGGAGGGTGGGTGGCGGCGGCGGCTAGCGGAGTCACCTAGTGCAG", "binding signal": "14400 fluorescence intensity (a.u.)"}, {"sequence": "CACATGGCATACTCTCTTTTTATTTCTCTTTTCATTTTTTCGGAGTCACCTAGTGCAG", "binding signal": "13900 fluorescence intensity (a.u.)"}, {"sequence": "GTACATCACTTTCCCAGAATTCTACTTTGACCCTTCTTGGCGGAGTCACCTAGTGCAG", "binding signal": "8180 fluorescence intensity (a.u.)"}, {"sequence": "TCTCTCGGTCTTTACATTATTGGTGATTGTCTTATATTTTCGGAGTCACCTAGTGCAG", "binding signal": "12300 fluorescence intensity (a.u.)"}, {"sequence": "GTGATGTTCATGCGACAATGTGTTTCTTCCTGGACATATTCGGAGTCACCTAGTGCAG", "binding signal": "8050 fluorescence intensity (a.u.)"}, {"sequence": "CCCTCATCGCCGCCGTCCTCACCTCACCGCCGGCCAAGCCCGGAGTCACCTAGTGCAG", "binding signal": "9330 fluorescence intensity (a.u.)"}, {"sequence": "TACCTCCTCATTGCCTCGCCGTCCACCGACTTCGCCGCCACGGAGTCACCTAGTGCAG", "binding signal": "8150 fluorescence intensity (a.u.)"}, {"sequence": "GCTGTGTACCTGAATTGAGAGGACCCTTGTTTTTGTTAGACGGAGTCACCTAGTGCAG", "binding signal": "9790 fluorescence intensity (a.u.)"}, {"sequence": "TCTCGCCTCAACGCTTTCCAATTCCACCCCGACTTGCTGACGGAGTCACCTAGTGCAG", "binding signal": "9330 fluorescence intensity (a.u.)"}, {"sequence": "TCCAAGGACACTAACATTTGTTGTCTCACCTGTTCTTTTCCGGAGTCACCTAGTGCAG", "binding signal": "8990 fluorescence intensity (a.u.)"}, {"sequence": "GACCGAGAGCGCACAAGGCTTTCTTCTCTCCATCTTCGCTCGGAGTCACCTAGTGCAG", "binding signal": "9200 fluorescence intensity (a.u.)"}, {"sequence": "CAGTACGTCCTGTGGTCGGGGTCTAAGATCATATTTTTCGCGGAGTCACCTAGTGCAG", "binding signal": "8490 fluorescence intensity (a.u.)"}, {"sequence": "CGTGAGAGGAGAGGGGAGGGTTGTCAACCGTGAGAATTGCCGGAGTCACCTAGTGCAG", "binding signal": "10000 fluorescence intensity (a.u.)"}, {"sequence": "GGAGGCGGAGGCCGCCGCTTTGAAGGGCGGGAGGGGCGTTCGGAGTCACCTAGTGCAG", "binding signal": "12400 fluorescence intensity (a.u.)"}, {"sequence": "TGTGTTTGATCAATCAGCTCCAAACTTTCGTTATTTATTTCGGAGTCACCTAGTGCAG", "binding signal": "9990 fluorescence intensity (a.u.)"}, {"sequence": "CTCACCCGACGCTCCGTGCCCCGACGTTCCTCCACGATTACGGAGTCACCTAGTGCAG", "binding signal": "9820 fluorescence intensity (a.u.)"}, {"sequence": "CATTTTCCGCGATCCGTTGGAACCGACTTCTCATCAAATGCGGAGTCACCTAGTGCAG", "binding signal": "11100 fluorescence intensity (a.u.)"}, {"sequence": "CAGTCAACTCGCCGGTCTGAATAAGTTACTACATGCTGAACGGAGTCACCTAGTGCAG", "binding signal": "8600 fluorescence intensity (a.u.)"}, {"sequence": "TGTCATCGTCGTCACCTTGTCAGTTGGCGCTGGATCCGCACGGAGTCACCTAGTGCAG", "binding signal": "10800 fluorescence intensity (a.u.)"}, {"sequence": "TTGGTGAACATACACTCCTTTTCTCCTTTTTCTTTTTATTCGGAGTCACCTAGTGCAG", "binding signal": "11000 fluorescence intensity (a.u.)"}, {"sequence": "GCTATTTTTTATATTGTATTTCTATTTGGACTCTTCTTTTCGGAGTCACCTAGTGCAG", "binding signal": "15500 fluorescence intensity (a.u.)"}, {"sequence": "AATTTGTGTACTACTCGTGATCGATCCATTTGGCCATTAACGGAGTCACCTAGTGCAG", "binding signal": "8590 fluorescence intensity (a.u.)"}, {"sequence": "GGAGGAGTACGACGGGGTGGGAGCGGCGGTGGGTGGGATGCGGAGTCACCTAGTGCAG", "binding signal": "11500 fluorescence intensity (a.u.)"}, {"sequence": "TCCATCCGGCGAGCAGAGCAGGGGAGGGGAGGGGATCCTGCGGAGTCACCTAGTGCAG", "binding signal": "14000 fluorescence intensity (a.u.)"}]}]}
